Some of the results follow.

Compound in the assay: CC1Cc2ccccc2N1C(=O)C1CCCN(C1)C(=O)CCl (mixture of isomers) [TRIM25 ligand 11 (diastereomer mixture)]
As to the kind of experiment: probe-labelled cysteine peptide fold change vs DMSO (competition) (log2 fold change); higher = less target engagement (more negative = stronger competition). The note with it: THP-1, incubation time: 4 h.
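Also: competitive chemoproteomic profiling in live THP-1 cells with an iodoacetamide desthiobiotin (IA-DTB) probe, comparing probe-labelled peptide intensities in compound-treated cells against DMSO-treated controls.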

In the case of “BABAM1_Q9NWV8_222_TILVYSRPPCQPQFSLTEPMK (UniProt Q9NWV8)”, the “probe-labelled cysteine peptide fold change” value (10 µM) came to 0.0584 and the “probe-labelled cysteine peptide fold change” value (50 µM) was -0.121.

As to “BCR_P11274_395_HCPVVVSEATIVGVR (UniProt P11274)”, the “probe-labelled cysteine peptide fold change” value is 0.0473 (10 µM) and -0.124 (50 µM).

Regarding “BIK_Q13323_63_LACIGDEMDVSLR (UniProt Q13323)”, the “probe-labelled cysteine peptide fold change” value is, setting by setting: (10 µM) 0.0736; (50 µM) -0.0199.

“AURKB_Q96GD4_191_TATIMEELADALMYCHGK (UniProt Q96GD4)”: the “probe-labelled cysteine peptide fold change” value by setting is: (10 µM) -0.0605; (50 µM) -0.0376.

For the target “BLMH_Q13867_40_LNSDPQFVLAQNVGTTHDLLDICLK (UniProt Q13867)”, the “probe-labelled cysteine peptide fold change” value was 0.0671 (10 µM) and 0.0882 (50 µM).

“BAG1_Q99933_213_EMETPLSALGIQDGCR (UniProt Q99933)”: the “probe-labelled cysteine peptide fold change” value reads like this: (10 µM) -0.139; (50 µM) -0.109.

For “BIRC6_Q9NR09_543_DLEELGANPCLTNSK (UniProt Q9NR09)”, the “probe-labelled cysteine peptide fold change” value runs as follows: (10 µM) -0.178; (50 µM) -0.271.

For “BPTF_Q12830_1241_EGCQSDSMR (UniProt Q12830)”, the “probe-labelled cysteine peptide fold change” value reads like this: (10 µM) -0.0339; (50 µM) -0.137.

“BPGM_P07738_23_FCSWVDQK (UniProt P07738)”: the “probe-labelled cysteine peptide fold change” value was -0.0584 (10 µM) and -0.12 (50 µM).

With “BAZ1A_Q9NRL2_621_ILHALCGK (UniProt Q9NRL2)”, the “probe-labelled cysteine peptide fold change” value was -0.129 (10 µM) and 0.0867 (50 µM).

For the target “AZU1_P20160_52_HFCGGALIHAR (UniProt P20160)”, the “probe-labelled cysteine peptide fold change” value is, setting by setting: (10 µM) -0.072; (50 µM) 0.156.

Take “ATXN10_Q9UBB4_65_SSHAVELACR (UniProt Q9UBB4)”: the “probe-labelled cysteine peptide fold change” value by setting is: (10 µM) 0.166; (50 µM) 0.0371.

For “BAZ1A_Q9NRL2_232_QHCEPQDGVIK (UniProt Q9NRL2)”, the “probe-labelled cysteine peptide fold change” value reads like this: (10 µM) -0.0384; (50 µM) -0.047.

Turning to “BIRC6_Q9NR09_1319_CAMLQFSEFHEK (UniProt Q9NR09)”, the “probe-labelled cysteine peptide fold change” value is -0.0118 (10 µM) and -0.161 (50 µM).

With “B4GALT7_Q9UBV7_307_TALSVGGAPCTVLNIMLDCDK (UniProt Q9UBV7)”, the “probe-labelled cysteine peptide fold change” value turned out to be 0.43 (10 µM) and 0.0101 (50 µM).

As for “BAZ1B_Q9UIG0_1175_MHVLLGMLDACIK (UniProt Q9UIG0)”, the “probe-labelled cysteine peptide fold change” value is, setting by setting: (10 µM) -0.144; (50 µM) -0.227.

With “BPNT1_O95861_59_LAQMSICSSLAR (UniProt O95861)”, the “probe-labelled cysteine peptide fold change” value (10 µM) was found to be 0.0908 and the “probe-labelled cysteine peptide fold change” value (50 µM) is -0.0214.

On to “AZU1_P20160_222_RGGICNGDGGTPLVCEGLAHGVASFSLGPCGR (UniProt P20160)”, for which the “probe-labelled cysteine peptide fold change” value reads like this: (10 µM) -0.0724; (50 µM) -0.0963.

For the target “BMS1_Q14692_757_FLVEAPHDWDLEEVMNSIRDCFVTGK (UniProt Q14692)”, the “probe-labelled cysteine peptide fold change” value (10 µM) was -0.215 and the “probe-labelled cysteine peptide fold change” value (50 µM) was -0.385.

In the case of “BABAM2_Q9NXR7_129_ELVQQYHQFQCSR (UniProt Q9NXR7)”, the “probe-labelled cysteine peptide fold change” value by setting is: (10 µM) 0.335; (50 µM) 0.209.

On to “BIRC6_Q9NR09_4183_HAQCLLR (UniProt Q9NR09)”, for which the “probe-labelled cysteine peptide fold change” value came to 0.166 (10 µM) and 0.0697 (50 µM).

As to “BMP2K_Q9NSY1_912_VNVQECHAVGPEAHTIPGYPK (UniProt Q9NSY1)”, the “probe-labelled cysteine peptide fold change” value (10 µM) worked out at 0.0239 and the “probe-labelled cysteine peptide fold change” value (50 µM) was -0.178.

For the target “BOP1_Q14137_690_YPLFASGSDDGSVIVCHGMVYNDLLQNPLLVPVK (UniProt Q14137)”, the “probe-labelled cysteine peptide fold change” value runs as follows: (10 µM) 0.0324; (50 µM) -0.00224.

For “BCOR_Q6W2J9_1080_SVTLEEAIAEQNESERCEYSVGNK (UniProt Q6W2J9)”, the “probe-labelled cysteine peptide fold change” value (10 µM) is -0.122 and the “probe-labelled cysteine peptide fold change” value (50 µM) was -0.41.

With “BLNK_Q8WV28_271_TTPVASQQNASSVCEEKPIPAER (UniProt Q8WV28)”, the “probe-labelled cysteine peptide fold change” value runs as follows: (10 µM) 0.0403; (50 µM) -0.105.

For “BPNT1_O95861_243_ASAYVFASPGCKK (UniProt O95861)”, the “probe-labelled cysteine peptide fold change” value by setting is: (10 µM) -0.283; (50 µM) -0.27.

Regarding “AVL9_Q8NBF6_119_SVCVLSK (UniProt Q8NBF6)”, the “probe-labelled cysteine peptide fold change” value (10 µM) came to 0.162 and the “probe-labelled cysteine peptide fold change” value (50 µM) is 0.0858.

As to “BIRC2_Q13490_110_QLYPSCSFIQNLVSASLGSTSK (UniProt Q13490)”, the “probe-labelled cysteine peptide fold change” value (10 µM) is -0.408 and the “probe-labelled cysteine peptide fold change” value (50 µM) is -0.0694.

Take “BAZ2A_Q9UIF9_1660_SAAQVCLCLGQLER (UniProt Q9UIF9)”: the “probe-labelled cysteine peptide fold change” value (10 µM) amounted to 0.0716 and the “probe-labelled cysteine peptide fold change” value (50 µM) is -0.303.

Take “ATXN10_Q9UBB4_165_NEDSQSIVWVHAFPELFLSCLNHPDKK (UniProt Q9UBB4)”: the “probe-labelled cysteine peptide fold change” value (10 µM) amounted to 0.145 and the “probe-labelled cysteine peptide fold change” value (50 µM) is 0.235.

With “BLM_P54132_468_ELNFSHLPSNSVSPGDCLLTTTLGK (UniProt P54132)”, the “probe-labelled cysteine peptide fold change” value is -0.211 (10 µM) and -0.141 (50 µM).

With “BCKDHB_P21953_207_SPWGCVGHGALYHSQSPEAFFAHCPGIK (UniProt P21953)”, the “probe-labelled cysteine peptide fold change” value is, setting by setting: (10 µM) 0.0884; (50 µM) -0.0392.

Consider “BOD1L1_Q8NFC6_1071_RLCENR (UniProt Q8NFC6)”, for which the “probe-labelled cysteine peptide fold change” value reads like this: (10 µM) 0.0518; (50 µM) -0.0137.

With “BORCS6_Q96GS4_67_TSSCGVVHRPER (UniProt Q96GS4)”, the “probe-labelled cysteine peptide fold change” value is -0.031 (10 µM) and -0.0929 (50 µM).

Take “BAG5_Q9UL15_191_INFVMCEVNK (UniProt Q9UL15)”: the “probe-labelled cysteine peptide fold change” value is, setting by setting: (10 µM) 0.0985; (50 µM) 0.111.

For the target “BCOR_Q6W2J9_1525_HLLEYGADVNCSAQDGTRPLHDAVENDHLEIVR (UniProt Q6W2J9)”, the “probe-labelled cysteine peptide fold change” value is, setting by setting: (10 µM) 0.055; (50 µM) 0.173.

On to “BAZ1B_Q9UIG0_1096_DFGECVIALQASVIK (UniProt Q9UIG0)”, for which the “probe-labelled cysteine peptide fold change” value by setting is: (10 µM) 0.121; (50 µM) 0.25.

As to “BIRC6_Q9NR09_1293_GCDLLQEVSVTIRR (UniProt Q9NR09)”, the “probe-labelled cysteine peptide fold change” value (10 µM) is -0.178 and the “probe-labelled cysteine peptide fold change” value (50 µM) is -0.0856.

As to “BAZ1A_Q9NRL2_799_IQSAIACTNIFPLGR (UniProt Q9NRL2)”, the “probe-labelled cysteine peptide fold change” value (10 µM) is 0.0381 and the “probe-labelled cysteine peptide fold change” value (50 µM) amounted to 0.0711.

For “BAZ1A_Q9NRL2_105_LHEICDDIFAYVK (UniProt Q9NRL2)”, the “probe-labelled cysteine peptide fold change” value was -0.0232 (10 µM) and 0.0588 (50 µM).

With “AZU1_P20160_68_FVMTAASCFQSQNPGVSTVVLGAYDLR (UniProt P20160)”, the “probe-labelled cysteine peptide fold change” value was -0.151 (10 µM) and -0.152 (50 µM).

As for “BCKDHB_P21953_228_GLLLSCIEDK (UniProt P21953)”, the “probe-labelled cysteine peptide fold change” value (10 µM) was found to be 0.0405 and the “probe-labelled cysteine peptide fold change” value (50 µM) worked out at 0.119.

For the origin of these results see the supplement of paper PMC12067093, “Discovery and optimisation of a covalent ligand for TRIM25 and its application to targeted protein ubiquitination” (Chemical Science, 2025).
